According to patent US20060024313A1, “Agents that disrupt dimer formation in DPP-IV family of prolyl dipeptidases” (priority 2004, published 2006):
No constants are given. Whether binding was seen depends on the method and setting. Some binding calls cover weakened binding; strength is not graded here.

Sequences of proteins named here, by UniProt entry; tags and fusion partners are left off. Residues count along the entry.
UniProt P27487, residues 39-766: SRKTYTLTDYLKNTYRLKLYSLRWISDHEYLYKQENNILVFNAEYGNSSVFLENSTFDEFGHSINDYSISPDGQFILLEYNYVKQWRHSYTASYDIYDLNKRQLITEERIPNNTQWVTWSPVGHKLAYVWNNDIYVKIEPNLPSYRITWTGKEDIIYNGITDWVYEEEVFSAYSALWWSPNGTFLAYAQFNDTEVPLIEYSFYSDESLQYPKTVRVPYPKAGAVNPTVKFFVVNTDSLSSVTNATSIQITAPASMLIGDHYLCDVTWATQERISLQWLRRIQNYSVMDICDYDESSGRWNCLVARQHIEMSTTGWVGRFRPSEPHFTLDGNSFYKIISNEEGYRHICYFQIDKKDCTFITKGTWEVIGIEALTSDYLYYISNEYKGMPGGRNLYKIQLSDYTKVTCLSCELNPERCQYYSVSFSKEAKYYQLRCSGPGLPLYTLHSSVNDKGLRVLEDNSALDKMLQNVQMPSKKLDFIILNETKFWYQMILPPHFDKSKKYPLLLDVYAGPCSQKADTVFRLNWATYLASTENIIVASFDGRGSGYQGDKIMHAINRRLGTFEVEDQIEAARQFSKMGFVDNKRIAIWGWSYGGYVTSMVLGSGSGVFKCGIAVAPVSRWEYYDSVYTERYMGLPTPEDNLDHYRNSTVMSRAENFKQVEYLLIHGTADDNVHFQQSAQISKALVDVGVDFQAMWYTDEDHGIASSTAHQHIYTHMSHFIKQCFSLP

Tests used:
[1] = target: T1, Bovine adenosine deaminase (ADA) (bovine) (UniProt P56658); experiment: ADA affinity column purification
T1 sequence (coupled to CNBr-activated Sepharose 4B (affinity column), looked up): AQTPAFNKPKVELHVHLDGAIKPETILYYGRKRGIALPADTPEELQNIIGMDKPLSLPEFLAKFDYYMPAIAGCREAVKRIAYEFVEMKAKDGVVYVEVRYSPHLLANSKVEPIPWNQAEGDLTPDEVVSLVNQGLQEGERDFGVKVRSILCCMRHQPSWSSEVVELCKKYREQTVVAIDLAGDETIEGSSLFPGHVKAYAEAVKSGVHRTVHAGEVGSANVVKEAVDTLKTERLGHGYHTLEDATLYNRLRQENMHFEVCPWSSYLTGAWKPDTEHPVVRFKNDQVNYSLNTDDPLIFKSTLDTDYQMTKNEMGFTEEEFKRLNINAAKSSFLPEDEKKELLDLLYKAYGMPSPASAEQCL

DPP 8 [2] = target: DPP 8 (UniProt Q6V1X1); experiment: analytical ultracentrifugation (self-association)
DPP 8 [3] = target: DPP 8 (UniProt Q6V1X1); experiment: analytical ultracentrifugation, figure legend (self-association)

binding [1] | binding (DPP 8 [2]) | binding (DPP 8 [3]) | Substance
binds | – | – | endogenous DPP-IV purified from human semen (sDPP-IV) (from UniProt P27487 39-766) (enzyme)
– | binds | binds | DPP 8 (from UniProt Q6V1X1 1-882) (enzyme)
